From patent US20160159879A1 (UNIVERSITY OF NORTH CAROLINA AT CHAPEL HILL, published 2016)
Results are given in words; binding and its absence hold for the method and conditions named. Binding seen in cells or lysates may run through a third protein. Some entries that bind do so weakly or less than the wild type. Sequences can lack the tags named with a protein.

Chains of the proteins cited; added tags and fusions are not shown. Lines headed by an entry give the natural chain unless they say otherwise; changes in a name come on top.
UniProt P37089: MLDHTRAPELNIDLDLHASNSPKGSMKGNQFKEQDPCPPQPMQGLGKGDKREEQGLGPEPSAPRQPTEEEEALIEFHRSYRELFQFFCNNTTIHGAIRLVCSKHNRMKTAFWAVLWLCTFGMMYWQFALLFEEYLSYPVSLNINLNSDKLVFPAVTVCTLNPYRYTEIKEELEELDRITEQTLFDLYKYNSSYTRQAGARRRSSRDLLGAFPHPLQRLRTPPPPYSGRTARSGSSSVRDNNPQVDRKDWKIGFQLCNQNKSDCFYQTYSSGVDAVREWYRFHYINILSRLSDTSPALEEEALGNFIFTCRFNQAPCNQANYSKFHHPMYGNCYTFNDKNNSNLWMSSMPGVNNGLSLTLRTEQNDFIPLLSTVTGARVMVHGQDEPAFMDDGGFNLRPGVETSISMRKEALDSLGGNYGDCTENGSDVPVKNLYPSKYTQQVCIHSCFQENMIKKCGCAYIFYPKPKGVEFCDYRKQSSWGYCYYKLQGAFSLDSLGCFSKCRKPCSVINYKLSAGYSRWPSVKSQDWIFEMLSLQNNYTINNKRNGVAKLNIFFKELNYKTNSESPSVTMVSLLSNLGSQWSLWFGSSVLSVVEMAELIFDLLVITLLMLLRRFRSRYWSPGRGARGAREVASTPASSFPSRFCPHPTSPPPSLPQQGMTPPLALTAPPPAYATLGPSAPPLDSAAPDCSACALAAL
UniProt P37090: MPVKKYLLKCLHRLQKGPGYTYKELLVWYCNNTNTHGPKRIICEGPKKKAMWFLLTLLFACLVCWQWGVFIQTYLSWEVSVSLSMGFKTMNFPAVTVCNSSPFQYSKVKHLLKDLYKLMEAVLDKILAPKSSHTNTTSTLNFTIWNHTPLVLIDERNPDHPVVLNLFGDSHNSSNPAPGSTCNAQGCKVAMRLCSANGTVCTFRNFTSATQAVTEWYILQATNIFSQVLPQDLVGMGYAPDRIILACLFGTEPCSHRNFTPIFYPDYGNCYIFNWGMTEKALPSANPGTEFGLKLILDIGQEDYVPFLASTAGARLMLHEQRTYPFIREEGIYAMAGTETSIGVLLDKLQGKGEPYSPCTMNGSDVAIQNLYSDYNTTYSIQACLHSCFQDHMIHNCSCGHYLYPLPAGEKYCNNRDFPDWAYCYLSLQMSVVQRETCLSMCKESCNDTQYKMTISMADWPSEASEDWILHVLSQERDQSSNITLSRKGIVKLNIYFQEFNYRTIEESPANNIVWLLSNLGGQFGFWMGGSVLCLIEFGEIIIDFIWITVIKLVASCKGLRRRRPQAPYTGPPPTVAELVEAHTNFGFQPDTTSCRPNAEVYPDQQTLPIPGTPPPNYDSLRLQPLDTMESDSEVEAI
UniProt P37091: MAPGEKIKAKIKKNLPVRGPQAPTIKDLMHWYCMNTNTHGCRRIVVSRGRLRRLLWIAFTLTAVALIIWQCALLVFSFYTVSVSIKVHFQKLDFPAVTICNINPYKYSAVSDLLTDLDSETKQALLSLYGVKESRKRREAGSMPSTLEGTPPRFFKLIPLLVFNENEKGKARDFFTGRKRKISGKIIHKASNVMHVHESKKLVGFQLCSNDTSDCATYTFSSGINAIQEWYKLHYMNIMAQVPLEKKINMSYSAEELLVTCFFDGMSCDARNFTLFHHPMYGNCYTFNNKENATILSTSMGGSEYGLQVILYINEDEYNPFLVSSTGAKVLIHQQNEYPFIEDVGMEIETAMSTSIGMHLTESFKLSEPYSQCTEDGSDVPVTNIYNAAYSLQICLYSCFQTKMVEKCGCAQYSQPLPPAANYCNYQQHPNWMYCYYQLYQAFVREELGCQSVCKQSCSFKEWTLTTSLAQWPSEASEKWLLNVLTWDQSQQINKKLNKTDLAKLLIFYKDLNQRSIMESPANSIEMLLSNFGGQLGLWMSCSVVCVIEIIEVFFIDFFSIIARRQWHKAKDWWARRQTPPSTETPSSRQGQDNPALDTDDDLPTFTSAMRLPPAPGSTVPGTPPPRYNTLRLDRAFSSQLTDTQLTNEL

Target: αβγENaC expressed in Xenopus laevis oocytes (rat) (UniProt P37089+P37090+P37091)
Test: co-immunoprecipitation from oocyte lysates, anti-HA pull-down, anti-V5 blot

B1: V5-tagged SPLUNC1 expressed in Xenopus oocytes from injected cRNA (other, not shown: small tags and cut ends)
chain: QFGGLPVPLDQTLPLNVNPALPLSPTGLAGSLTNALSNGLLSGGLLGILENLPLLDILKPGGGTSGGLLGGLLGKVTSVIPGLNNIIDIKVTDPQLLELGLVQSPDGHRLYVTIPLGIKLQVNTPLVGASLLRLAVKLDITAEILAVRDKQERIHLVLGDCTHSPGSLQISLLDGLGPLPIQGLLDSLTGILNKVLPELVQGNVCPLVNEVLRGLDITLVHDIVNMLIHGLQFVIKV
binding: binds
